Inconclusive results, whose numbers are uncertain, are shown with a selection of clear calls. Potencies of inconclusive entries are doubtful fits and often do not repeat. Calls of active or inactive are those of the source. Calls come from the whole dose curve; as a rule, active = well fitted curve in the direction sought with a large enough effect; inconclusive = small, poorly fitted or top-dose-only effect, or another doubt; inactive = no such curve, though single readings can be large or run the other way.
test: qHTS for Inhibitors of Glutaminase (GLS): Hit Confirmation in HRP Counterscreen; details: HRP/glutamate oxidase coupled Amplex Red fluorescence counterscreen; series mostly up to 46.1 µM
Text: Glutaminase (GLS) catalyzes the hydrolysis of glutamine into glutamate and ammonia. It plays a critical role in glutaminolysis, which is an important energy source for proliferating cells. It was shown that c-Myc, an oncogenic transcription factor known to regulate microRNAs and to stimulate cell proliferation, increases glutamine metabolism by stimulating the expression of GLS via direct suppression of miR23a and miR23b. […] GLS is also thought to play a pathogenic role on HAD using a human HIV-1 infected macrophage system. […] GLS inhibition limits glutamate release and provides neuroprotection against HIV-1 infected macrophages. […] The overall goal of this project is to identify small molecule inhibitors of GLS through quantitative high throughput screening (qHTS) of the MLSMR. A validated potent and selective inhibitor can be used as a tool molecule to further study the pharmacology of its target as well as explore its potential therapeutic application in cancer and inflammatory neurological disorders, such as HIV1-associated dementia (HAD) and multiple sclerosis. This is the hit confirmation in the horse radish peroxidase (HRP) counterscreen. NIH Chemical Genomics Center [NCGC] NIH Molecular Libraries Probe Centers Network [MLPCN] MLPCN Grant: DA032470 Assay Submitter (PI): Barbara S. Slusher, Johns Hopkins University
3 uL of buffer are dispensed into black 1536-well plates and then 23 nL of compounds are transferred into the wells using a pin tool. 1 uL of L-Glutamine and 1 uL of reagent containing L-Glutamate oxidase, HRP, and Ample red are added subsequently. The plate is quickly centrifuged before an initial read on the ViewLux is obtained. After a 30 min incubation at RT the plate is once again read on the ViewLux.

Compound | Potency
NS(=O)(=O)c1ccc(CNS(=O)(=O)c2cc(C(=O)O)ccc2Cl)cc1 | inactive
COc1ccc(OC)c(S(=O)(=O)Nc2ccccc2O)c1 | inconclusive: 18.4 µM [inhibitor, single point]
COc1ccc(OC)c(S(=O)(=O)Nc2cccc3ccc(O)cc23)c1 | inconclusive: 20.6 µM [inhibitor, single point]
COc1ccc(NS(=O)(=O)c2cc(NC(=O)[C@H](C)NC(N)=O)ccc2N2CCCC2)cc1 | inconclusive: 32.6 µM [inhibitor, partial curve, poor fit]
O=S(=O)(Nc1ccccc1O)c1cccc2cccnc12 | inconclusive: 29.1 µM [inhibitor, single point]
O=C(O)c1ccccc1NS(=O)(=O)c1cccc(NS(=O)(=O)c2cc(Br)ccc2Br)c1 | inactive
COc1cc(OC)c(S(=O)(=O)Nc2ccccc2C(=O)O)cc1S(=O)(=O)Nc1ccccc1C(=O)O | inactive
COc1ccc(S(=O)(=O)Nc2c(O)ccc3ccccc23)cc1OC | inconclusive: 29.1 µM [inhibitor, single point]
CN1C(=O)c2cccc3c(S(=O)(=O)Nc4ccc(O)c(C(=O)O)c4)ccc1c23 | inconclusive: 11.6 µM [inhibitor, partial curve]
O=C(O)c1ccccc1NS(=O)(=O)c1cccc(-n2sc3ccccc3c2=O)c1 | inactive
COc1ccccc1NS(=O)(=O)c1ccc(O)c(NC(=S)NCC2CCCO2)c1 (stereo not drawn) | inactive
CCN(CC)c1ccc(N)cc1S(=O)(=O)Nc1ccccc1OC | inconclusive: 14.6 µM [inhibitor, single point]
Cc1ccc(NS(=O)(=O)c2cc(C(=O)O)ccc2Cl)cc1 | inactive
CCN(CC)c1ccc(N)cc1S(=O)(=O)Nc1ccc(OC)cc1 | inconclusive: 11.6 µM [inhibitor, partial curve]
COc1ccccc1NS(=O)(=O)c1cc(N)ccc1N1CCCC1 | inconclusive: 29.1 µM [inhibitor, single point]
O=C(Nc1ccccc1O)c1cccc(S(=O)(=O)Nc2ccccc2O)c1 | inconclusive: 18.4 µM [inhibitor, single point]
COc1ccc(S(=O)(=O)Nc2cccc3ccc(O)cc23)cc1 | inconclusive: 29.1 µM [inhibitor, single point]
Cc1ccc(S(=O)(=O)Nc2ccc(O)c3ccccc23)c(C)c1 | inactive
O=C(O)c1ccc(S(=O)(=O)Nc2ccc(O)c(Sc3nc4ccccc4s3)c2)cc1 | inconclusive: 29.1 µM [inhibitor, single point]
COc1ccc(NS(=O)(=O)c2cc(N)ccc2N2CCCC2)cc1 | inconclusive: 29.1 µM [inhibitor, single point]
CCN(CC)S(=O)(=O)c1ccc(NS(=O)(=O)c2cccc(C)c2)cc1 | inactive
Cc1ccc(S(=O)(=O)Nc2cc(C)c(O)c(Sc3n[nH]c(C)n3)c2)cc1 | inconclusive: 29.1 µM [inhibitor, single point]
O=C(O)c1cccc(S(=O)(=O)Nc2ccc(O)cc2Sc2nc3ccccc3s2)c1 | inconclusive: 23.1 µM [inhibitor, single point]

Reprinted from above (2 entries):
Compound | Potency
O=S(=O)(Nc1ccccc1O)c1cccc2cccnc12 | inconclusive: 29.1 µM [inhibitor, single point]
O=C(O)c1ccccc1NS(=O)(=O)c1cccc(NS(=O)(=O)c2cc(Br)ccc2Br)c1 | inactive

Reference: PubChem BioAssay AID624262 (National Center for Advancing Translational Sciences (NCATS), 2012)
